# Results are given in words; binding and its absence hold for the method and conditions named. Some results given as binding are weak or reduced against the parent protein; the word gives no strength.
# By UniProt entry, the sequences of proteins in these tests, tags left out. Where a name states a change or a piece, a line headed by the entry shows the natural chain unless it says otherwise.
# UniProt P35918: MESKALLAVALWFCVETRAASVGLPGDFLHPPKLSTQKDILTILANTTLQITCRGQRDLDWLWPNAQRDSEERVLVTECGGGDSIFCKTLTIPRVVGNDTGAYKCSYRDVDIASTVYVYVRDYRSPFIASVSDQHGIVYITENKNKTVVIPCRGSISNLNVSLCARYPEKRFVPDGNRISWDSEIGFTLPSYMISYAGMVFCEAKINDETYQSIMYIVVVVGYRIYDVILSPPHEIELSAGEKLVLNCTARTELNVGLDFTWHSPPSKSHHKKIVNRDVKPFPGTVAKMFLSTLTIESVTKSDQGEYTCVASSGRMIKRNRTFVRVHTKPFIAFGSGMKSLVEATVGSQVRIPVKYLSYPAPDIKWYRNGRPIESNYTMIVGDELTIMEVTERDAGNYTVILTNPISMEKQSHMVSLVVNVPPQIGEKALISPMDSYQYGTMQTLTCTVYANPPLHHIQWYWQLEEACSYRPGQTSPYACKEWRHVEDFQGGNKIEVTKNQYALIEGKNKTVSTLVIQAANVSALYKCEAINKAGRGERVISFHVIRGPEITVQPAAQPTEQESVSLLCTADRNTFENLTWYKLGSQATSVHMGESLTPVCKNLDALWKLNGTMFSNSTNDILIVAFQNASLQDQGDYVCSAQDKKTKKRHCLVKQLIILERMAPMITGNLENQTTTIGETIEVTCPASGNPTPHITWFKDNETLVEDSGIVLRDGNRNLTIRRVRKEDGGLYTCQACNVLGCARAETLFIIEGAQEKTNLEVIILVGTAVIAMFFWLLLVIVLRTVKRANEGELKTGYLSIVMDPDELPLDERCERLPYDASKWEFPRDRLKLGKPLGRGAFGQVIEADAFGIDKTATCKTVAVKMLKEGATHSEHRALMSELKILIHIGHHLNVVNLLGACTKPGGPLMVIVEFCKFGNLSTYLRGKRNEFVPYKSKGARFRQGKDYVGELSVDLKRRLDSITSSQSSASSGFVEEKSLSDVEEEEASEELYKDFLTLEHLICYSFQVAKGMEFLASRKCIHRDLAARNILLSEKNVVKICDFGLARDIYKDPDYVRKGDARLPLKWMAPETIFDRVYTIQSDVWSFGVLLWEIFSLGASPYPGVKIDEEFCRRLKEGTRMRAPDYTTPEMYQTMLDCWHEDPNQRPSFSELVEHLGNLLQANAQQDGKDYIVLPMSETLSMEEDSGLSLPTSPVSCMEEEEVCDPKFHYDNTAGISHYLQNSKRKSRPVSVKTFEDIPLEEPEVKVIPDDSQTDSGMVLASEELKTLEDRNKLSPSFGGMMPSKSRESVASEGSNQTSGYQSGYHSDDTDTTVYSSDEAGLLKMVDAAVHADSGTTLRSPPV
# UniProt P14753: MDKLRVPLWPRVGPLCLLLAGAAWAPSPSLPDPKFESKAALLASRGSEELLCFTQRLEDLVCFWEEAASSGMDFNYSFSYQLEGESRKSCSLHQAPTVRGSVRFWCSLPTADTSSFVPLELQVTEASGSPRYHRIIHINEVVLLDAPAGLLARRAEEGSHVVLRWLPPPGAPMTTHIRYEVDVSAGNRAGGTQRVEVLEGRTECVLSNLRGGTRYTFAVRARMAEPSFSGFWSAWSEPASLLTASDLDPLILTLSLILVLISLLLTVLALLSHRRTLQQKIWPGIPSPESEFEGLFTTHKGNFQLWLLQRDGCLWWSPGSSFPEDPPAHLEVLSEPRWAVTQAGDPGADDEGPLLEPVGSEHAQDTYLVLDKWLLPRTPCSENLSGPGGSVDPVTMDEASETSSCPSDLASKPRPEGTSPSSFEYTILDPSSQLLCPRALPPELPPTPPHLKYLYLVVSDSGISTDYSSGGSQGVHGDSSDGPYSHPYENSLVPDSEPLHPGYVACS
# UniProt O43915: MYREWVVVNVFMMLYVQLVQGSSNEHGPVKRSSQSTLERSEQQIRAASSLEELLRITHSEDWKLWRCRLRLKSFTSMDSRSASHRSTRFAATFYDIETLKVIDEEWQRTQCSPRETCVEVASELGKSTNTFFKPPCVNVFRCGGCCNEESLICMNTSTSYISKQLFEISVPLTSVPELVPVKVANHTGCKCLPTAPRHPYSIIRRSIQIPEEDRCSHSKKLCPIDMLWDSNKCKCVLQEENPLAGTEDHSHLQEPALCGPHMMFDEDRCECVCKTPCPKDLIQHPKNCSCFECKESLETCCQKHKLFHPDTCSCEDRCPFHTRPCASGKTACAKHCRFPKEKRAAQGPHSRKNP
# Biological target: VEGFR2-EpoR chimeric receptor (mouse VEGFR2 extracellular domain with mouse EpoR transmembrane and cytoplasmic domains) on Ba/F3-NYK-EpoR cells (mouse) (UniProt P35918+P14753)
# Test: Ba/F3 VEGFR2-EpoR survival bioassay (binding inferred from cell rescue)
substance,measurement,value
human VEGF-D (from UniProt O43915 22-354) (ligand),binding,binds

# — patent US7410639 (VEGENICS, dated 2008)
